## Percent effect of library compounds

Protein sequences, listed by entry. Tags and fused reporters are not part of them. Residues count along the entry.
UniProt P9WNZ1, whole entry: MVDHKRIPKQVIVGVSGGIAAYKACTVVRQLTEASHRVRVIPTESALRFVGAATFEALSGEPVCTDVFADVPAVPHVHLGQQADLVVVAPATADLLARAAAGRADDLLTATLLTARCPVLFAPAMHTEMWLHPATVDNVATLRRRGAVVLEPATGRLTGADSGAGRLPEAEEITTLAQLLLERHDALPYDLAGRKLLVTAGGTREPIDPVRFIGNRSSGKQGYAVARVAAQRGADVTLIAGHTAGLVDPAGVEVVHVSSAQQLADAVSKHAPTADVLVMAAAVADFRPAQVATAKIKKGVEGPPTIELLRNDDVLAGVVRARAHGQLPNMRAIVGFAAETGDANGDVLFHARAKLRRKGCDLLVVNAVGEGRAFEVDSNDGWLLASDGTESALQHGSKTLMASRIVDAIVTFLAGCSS
UniProt Q8IDJ8, 1-583: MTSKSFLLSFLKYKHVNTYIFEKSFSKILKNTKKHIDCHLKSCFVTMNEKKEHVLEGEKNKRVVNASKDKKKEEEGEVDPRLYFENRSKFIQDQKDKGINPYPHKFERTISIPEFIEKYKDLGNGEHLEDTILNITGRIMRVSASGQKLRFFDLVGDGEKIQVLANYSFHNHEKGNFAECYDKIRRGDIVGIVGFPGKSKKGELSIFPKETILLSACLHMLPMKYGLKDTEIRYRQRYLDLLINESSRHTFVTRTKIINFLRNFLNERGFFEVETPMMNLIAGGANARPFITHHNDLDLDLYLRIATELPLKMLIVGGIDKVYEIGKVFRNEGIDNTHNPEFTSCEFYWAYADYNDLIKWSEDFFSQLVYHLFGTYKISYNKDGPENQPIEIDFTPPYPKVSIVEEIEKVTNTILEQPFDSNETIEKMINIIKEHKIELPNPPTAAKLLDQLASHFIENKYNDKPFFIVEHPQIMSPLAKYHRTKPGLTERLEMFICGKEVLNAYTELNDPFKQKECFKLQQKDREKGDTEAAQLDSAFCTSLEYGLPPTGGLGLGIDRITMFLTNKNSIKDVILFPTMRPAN
UniProt A4I591, 1-473: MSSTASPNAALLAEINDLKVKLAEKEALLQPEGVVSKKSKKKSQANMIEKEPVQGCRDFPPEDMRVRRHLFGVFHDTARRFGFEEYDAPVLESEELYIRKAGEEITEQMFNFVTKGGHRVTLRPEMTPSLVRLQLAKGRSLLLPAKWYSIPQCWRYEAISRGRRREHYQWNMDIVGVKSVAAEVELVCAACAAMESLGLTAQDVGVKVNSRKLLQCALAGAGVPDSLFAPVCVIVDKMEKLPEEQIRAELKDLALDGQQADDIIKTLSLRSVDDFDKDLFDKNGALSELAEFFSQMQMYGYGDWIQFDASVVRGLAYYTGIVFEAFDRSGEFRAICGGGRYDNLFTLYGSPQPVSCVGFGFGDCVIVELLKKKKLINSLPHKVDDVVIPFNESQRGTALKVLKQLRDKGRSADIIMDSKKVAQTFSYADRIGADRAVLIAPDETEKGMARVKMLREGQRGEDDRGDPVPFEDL

From ChEMBL document CHEMBL3988442, “University of Dundee, Small-Polar-MMV Screening Library” (2021).

CoaBC: 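Enzyme assay of CoaBC with a phosphate dye (Biomol Green) read at 650 nm. Target: Coenzyme A biosynthesis protein CoaBC, Mycobacterium tuberculosis (UniProt P9WNZ1). Tested at 30 µM. Higher reads as stronger inhibition, judged from the few compounds that gave an IC50. Most strong results did not repeat in a second test. Size under these conditions: about 67,000 compounds, about 40 of them at 50% or above in at least one test.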
PfKRS1: 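Enzyme assay of the cytosolic lysyl-tRNA synthetase in 384-well plates, read by luminescence. Target: Lysine-tRNA ligase, Plasmodium falciparum 3D7 (UniProt Q8IDJ8). Concentration: 30 µM. Direction is inferred from only a few compounds that gave an IC50; most scored high, so higher reads as stronger inhibition. About 69,000 compounds were tested under these conditions; 0.071% (about 49) showed 50% or more at least once.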
LiHisRS: 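Enzyme assay of histidyl-tRNA synthetase; the read-out is not stated. Target: Histidine-tRNA ligase, Leishmania infantum (UniProt A4I591). Compounds at 30 µM. The record gives no direction; compounds that gave an IC50 in retests scored well above the rest, so higher reads as stronger inhibition. The assay is labelled LdHisRS but filed under L. infantum. Size under these conditions: about 69,000 compounds, about 410 of them at 50% or above in at least one test.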

Each number is a percent effect as filed. The record does not define 0% and 100%; most values in the screen are far below 50% and negative numbers occur (in some assays of this library far below -100). The compounds are a random part of those screened.

Cc1nc(C(=O)N2CCCC2c2c(C)nn(C)c2Cl)ccc1C#N (stereo not shown) gave CoaBC: 0.8906%; PfKRS1: 2.133%; LiHisRS: 6.087%.
O=C(NCCNc1cc(N2CCCC2)cnn1)Nc1ccccc1F gave CoaBC: 0%; PfKRS1: -4.52%; LiHisRS: 0%.
CCOCCNC(=O)c1ccc(OC)cc1I gave CoaBC: 0.5612%; PfKRS1: 2.958%; LiHisRS: 12.9%.
O=C(c1cccnc1)N1CCCC1c1cc[nH]n1 (stereo not shown) gave CoaBC: -1.607%; PfKRS1: 0.4102%; LiHisRS: 2.069%.
CCN1CCN(C[C@@H]2CN(Cc3cnc(C(C)C)nc3)C[C@@H]2CO)CC1 gave CoaBC: -8.266%; PfKRS1: -2.91%; LiHisRS: 27.27%.
Cc1cn2c(n1)CCC(NC(=O)CCn1ccnn1)C2 (stereo not shown) gave CoaBC: 6.511%; PfKRS1: 2.92%; LiHisRS: 4.545%.
Cc1nc(CN2CCCC(Cn3cncn3)C2)nc2ccccc12 (stereo not shown) gave CoaBC: 11.83%; PfKRS1: 0.6866%; LiHisRS: 20.18%.
CSCc1cc(F)ccc1CNC(=O)N1CCCC(CO)C1 (stereo not shown) gave CoaBC: 6.352%; PfKRS1: 6.55%; LiHisRS: 1.429%.
CC(C#N)CNS(=O)(=O)c1ccc(F)c(Br)c1 (stereo not shown) gave CoaBC: 0%; PfKRS1: 2.779%; LiHisRS: 8.824%.
Cc1noc(C(C)C)c1C(=O)N1CCOCC1CC(=O)c1ccco1 (stereo not shown) gave CoaBC: 1.215%; PfKRS1: -0.7081%; LiHisRS: 0%.
NC(=O)N1CCCC(C(=O)NCCc2nc(Cc3ccccc3)no2)C1 (stereo not shown) gave CoaBC: 1.485%; PfKRS1: 5.502%; LiHisRS: 12%.
COc1cccc(NC(=O)C2CC(=O)n3cnnc3S2)c1 (stereo not shown) gave CoaBC: -5.425%; PfKRS1: 1.668%; LiHisRS: 3.297%.
Cc1ccc(S(=O)(=O)c2ncccc2CN2CCCC2)cc1 gave CoaBC: 3.788%; PfKRS1: 2.061%; LiHisRS: 15.79%.
CCc1cnc(CN2C(=O)CC3(CCSC3)C2=O)o1 (stereo not shown) gave CoaBC: -8.779%; PfKRS1: -5.872%; LiHisRS: -5.172%.
Cc1nc(C2CCCN(C(=O)c3cc(-c4ccccc4)[nH]n3)C2)no1 (stereo not shown) gave CoaBC: 0.9091%; PfKRS1: -1.054%; LiHisRS: 7.143%.
Cn1ncc2c(N[C@@H]3C[C@@H]4CC[C@H]3C4)nc(-c3ccncc3)nc21 gave CoaBC: 4.151%; PfKRS1: 4.45%; LiHisRS: 17.7%.
Cc1cccc(-c2noc(CN3CCOC(Cn4cccn4)C3)n2)c1 (stereo not shown) gave CoaBC: 10.52%; PfKRS1: -0.379%; LiHisRS: 19.64%.
Cc1n[nH]c(C2CN(Cc3nnc(C4CCC4)o3)CCO2)n1 (stereo not shown) gave CoaBC: 3.412%; PfKRS1: 1.118%; LiHisRS: 13.56%.
COc1ncccc1C(=O)N1CCCC(n2ccnc2)C1 (stereo not shown) gave CoaBC: 4.604%; PfKRS1: -1.094%; LiHisRS: 11.01%.
O=S(=O)(C1CC1)N1CCO[C@H]2[C@H](Oc3cccnc3)CC[C@@H]21 gave CoaBC: 0.3699%; PfKRS1: 5.938%; LiHisRS: 14.52%.
CCC(CCNCc1cnc(C2CCC2)s1)N1CCCC1=O (stereo not shown) gave CoaBC: -0.8485%; PfKRS1: -3.317%; LiHisRS: 3.226%.
CCc1nsc(N2CCOC3(CCCC3)C2)n1 gave CoaBC: 5.868%; PfKRS1: 0.01211%; LiHisRS: 4.839%.
O=C(C1CCOCC1)N1CCOCC(Cc2ncccn2)C1 (stereo not shown) gave CoaBC: 9.026%; PfKRS1: 2.397%; LiHisRS: 11.27%.
O=C(NCCn1nc(-n2cncn2)ccc1=O)c1ccsc1 gave CoaBC: -0.2421%; PfKRS1: -2.722%; LiHisRS: 0%.
CNC(=O)c1cnc2n1CCN(Cc1cccnc1OC)C2 gave CoaBC: 3.893%; PfKRS1: 1.84%; LiHisRS: 16%.
CCc1ncnc2c1CCN(C(=O)N1CCCC1)CC2 gave CoaBC: 2.411%; PfKRS1: -3.583%; LiHisRS: -3.774%.

2 of the entries, repeated:

- Cc1ccc(S(=O)(=O)c2ncccc2CN2CCCC2)cc1 | CoaBC: 3.788%; PfKRS1: 2.061%; LiHisRS: 15.79%
- CCN1CCN(C[C@@H]2CN(Cc3cnc(C(C)C)nc3)C[C@@H]2CO)CC1 | CoaBC: -8.266%; PfKRS1: -2.91%; LiHisRS: 27.27%